According to article PMC4133157:
Results are given in words; binding and its absence hold for the method and conditions named. In cells and extracts the contact can be indirect. Binding can be weak; no strength is given. Tags and fused reporters may be left off the sequences shown.

Experiments:
[1] = biological target: T1, 3XFLAG::UNC-40 (HEK293T) (C. elegans) (UniProt G5EF96); assay: co-IP; FLAG-tagged receptor on transfected HEK293T cells incubated with 10x concentrated conditioned medium holding the HA- and Gaussia luciferase-tagged ligand, 4 hours at 4°C; cells lysed in TNTE buffer (0.5% Triton X-100), anti-FLAG immunoprecipitation, luciferase activity of the washed immunoprecipitate, normalised to receptor level
T1 sequence: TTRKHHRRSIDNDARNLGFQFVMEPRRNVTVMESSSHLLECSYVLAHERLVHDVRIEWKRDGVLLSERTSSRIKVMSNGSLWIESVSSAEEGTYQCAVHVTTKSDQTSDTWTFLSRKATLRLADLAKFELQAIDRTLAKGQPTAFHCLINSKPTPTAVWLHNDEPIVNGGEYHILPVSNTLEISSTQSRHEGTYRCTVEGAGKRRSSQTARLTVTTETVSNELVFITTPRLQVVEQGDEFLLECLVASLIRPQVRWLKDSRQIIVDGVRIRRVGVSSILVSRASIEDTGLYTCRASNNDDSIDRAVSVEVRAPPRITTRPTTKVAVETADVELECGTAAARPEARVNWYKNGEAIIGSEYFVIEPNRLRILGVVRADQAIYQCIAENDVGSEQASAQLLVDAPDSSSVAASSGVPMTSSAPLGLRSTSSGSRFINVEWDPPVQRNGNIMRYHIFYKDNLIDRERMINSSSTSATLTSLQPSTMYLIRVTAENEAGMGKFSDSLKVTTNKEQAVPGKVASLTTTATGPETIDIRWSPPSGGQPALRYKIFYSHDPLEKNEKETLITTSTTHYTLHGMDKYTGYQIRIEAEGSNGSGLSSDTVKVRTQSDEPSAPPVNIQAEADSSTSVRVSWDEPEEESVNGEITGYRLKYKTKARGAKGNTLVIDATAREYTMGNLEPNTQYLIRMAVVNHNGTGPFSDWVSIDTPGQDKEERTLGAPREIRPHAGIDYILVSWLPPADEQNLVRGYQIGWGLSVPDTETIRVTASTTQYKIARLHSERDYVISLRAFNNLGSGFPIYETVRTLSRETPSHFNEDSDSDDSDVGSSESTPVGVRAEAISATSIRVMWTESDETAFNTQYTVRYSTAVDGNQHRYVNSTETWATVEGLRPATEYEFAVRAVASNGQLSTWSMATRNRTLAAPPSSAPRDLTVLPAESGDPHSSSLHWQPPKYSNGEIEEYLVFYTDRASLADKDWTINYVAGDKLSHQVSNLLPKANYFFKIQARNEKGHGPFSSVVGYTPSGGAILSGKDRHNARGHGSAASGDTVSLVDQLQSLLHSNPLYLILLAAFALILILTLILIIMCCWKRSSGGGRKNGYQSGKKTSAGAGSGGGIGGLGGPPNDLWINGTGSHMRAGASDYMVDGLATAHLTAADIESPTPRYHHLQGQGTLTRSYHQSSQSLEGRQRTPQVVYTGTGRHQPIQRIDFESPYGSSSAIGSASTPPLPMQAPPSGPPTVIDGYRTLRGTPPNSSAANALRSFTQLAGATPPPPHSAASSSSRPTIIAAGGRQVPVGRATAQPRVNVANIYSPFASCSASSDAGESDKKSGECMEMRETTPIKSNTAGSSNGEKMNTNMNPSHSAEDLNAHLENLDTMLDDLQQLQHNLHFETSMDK

[2] = biological target: T2, 3XFLAG::EVA-1 (HEK293T) (C. elegans) (UniProt Q9XU98); assay: as above
T2 sequence: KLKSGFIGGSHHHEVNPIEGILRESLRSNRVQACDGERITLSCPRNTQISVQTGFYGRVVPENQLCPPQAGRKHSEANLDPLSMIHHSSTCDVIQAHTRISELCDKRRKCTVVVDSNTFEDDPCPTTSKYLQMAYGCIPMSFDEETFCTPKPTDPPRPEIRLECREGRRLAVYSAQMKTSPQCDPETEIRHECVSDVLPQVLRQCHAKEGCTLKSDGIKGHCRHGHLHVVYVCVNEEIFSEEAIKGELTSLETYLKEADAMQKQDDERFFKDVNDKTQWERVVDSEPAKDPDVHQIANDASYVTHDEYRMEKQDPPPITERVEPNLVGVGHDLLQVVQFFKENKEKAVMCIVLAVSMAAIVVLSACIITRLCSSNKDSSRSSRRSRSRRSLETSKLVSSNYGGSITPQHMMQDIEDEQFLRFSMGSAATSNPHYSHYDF

HA::MADD-4B::Gaussia luciferase (C. elegans) (ligand)
binding [1]: binds
binding [2]: binds
